The values that follow come from article PMC8927971.

Series [1] concerns the target T1, CIZ1 N571ΔPLD2 del361-399 (Mus musculus) (UniProt F6ZP34).
T1 sequence (looked up): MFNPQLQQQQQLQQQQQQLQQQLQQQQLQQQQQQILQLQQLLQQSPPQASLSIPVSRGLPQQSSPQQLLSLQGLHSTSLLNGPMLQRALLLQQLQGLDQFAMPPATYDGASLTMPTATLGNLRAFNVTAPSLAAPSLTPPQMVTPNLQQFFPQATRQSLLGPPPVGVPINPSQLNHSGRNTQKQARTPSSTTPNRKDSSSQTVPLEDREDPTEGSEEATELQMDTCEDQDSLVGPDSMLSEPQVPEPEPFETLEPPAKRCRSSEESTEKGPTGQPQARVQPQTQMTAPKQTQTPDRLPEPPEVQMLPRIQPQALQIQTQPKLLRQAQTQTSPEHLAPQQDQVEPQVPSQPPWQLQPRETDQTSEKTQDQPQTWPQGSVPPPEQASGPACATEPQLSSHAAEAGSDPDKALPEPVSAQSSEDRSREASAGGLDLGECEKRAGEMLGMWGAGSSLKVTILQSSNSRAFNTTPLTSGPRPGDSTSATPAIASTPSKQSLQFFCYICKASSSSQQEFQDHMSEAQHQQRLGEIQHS
In words: EMSA. As to conditions: 0.3 nM RNA; 10 mM Tris-HCl pH 7.5, 30 mM NaCl, 2.5 mM MgCl2, 0.2 mM DTT, 0.1% IGEPAL CA-630, 0.1 mg/ml yeast tRNA, 0.4 U RNaseOUT, 1% glycerol; 30 C 20 min; recombinant protein; residues 1-571; protein details: GST (N-term); label: digoxigenin-11-UTP (1:15 with UTP); probe letters rebuilt from the primers and the genome. A general note: A gel shift assay detects complexes by their altered migration in electrophoresis.

Series [2] addresses T2, CIZ1 N571ΔPLD1 del1-67 (Mus musculus) (UniProt F6ZP34).
T2 sequence (looked up): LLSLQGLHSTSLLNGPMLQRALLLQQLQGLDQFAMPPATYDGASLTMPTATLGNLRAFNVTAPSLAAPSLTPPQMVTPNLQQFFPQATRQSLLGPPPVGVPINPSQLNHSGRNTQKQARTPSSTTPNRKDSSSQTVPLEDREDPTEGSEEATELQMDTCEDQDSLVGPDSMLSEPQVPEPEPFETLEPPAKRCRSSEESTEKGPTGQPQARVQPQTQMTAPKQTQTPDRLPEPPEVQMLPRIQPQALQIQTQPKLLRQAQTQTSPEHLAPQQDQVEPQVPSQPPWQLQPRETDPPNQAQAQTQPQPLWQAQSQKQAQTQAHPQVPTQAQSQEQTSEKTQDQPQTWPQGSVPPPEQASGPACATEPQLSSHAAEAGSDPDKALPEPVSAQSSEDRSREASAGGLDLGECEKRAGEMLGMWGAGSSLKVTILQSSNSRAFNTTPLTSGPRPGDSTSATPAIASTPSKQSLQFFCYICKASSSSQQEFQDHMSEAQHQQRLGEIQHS
In words: EMSA. As to conditions: 0.3 nM RNA, massively impaired, 10 mM Tris-HCl pH 7.5, 30 mM NaCl, 2.5 mM MgCl2, 0.2 mM DTT, 0.1% IGEPAL CA-630, 0.1 mg/ml yeast tRNA, 0.4 U RNaseOUT, 1% glycerol, 30 C 20 min, recombinant protein, residues 68-571, protein details: GST (N-term), label: digoxigenin-11-UTP (1:15 with UTP), probe letters rebuilt from the primers and the genome.

For some of these results: A weaker result is weaker than the reference pair of the same experiment. Where a protein sequence is shown, tags need not be part of it.

With “GGGAGAUUUCUUCCUUGCAGUUGUGUCUAAUUCUUUGUUACAUCUAUUUCUUCCUUGCUUUUGUGUGUCUAUUUCUUCCUUGCAUUGUGUCUAAUUCUUUGGUAUAUAUAUUUCUUCAUUGCUUUGUGUGUCUAUGUCUCCUUGUGUUGUCUAAUUCGUUGUUGCAUCUAUUUCUUCCUUGCUUUGUGUGUCUAUUUCUUCCUUGCUUUGUGUGUCUAUGUCUUCCUUGCUUUGUGUGUCUAUGUCUUCCUUGUUUUGUGUAUCUACUUCUUCCUUGUGUGUCUAAUUCUUUGUUACAUCUAUUUCUUCCUUCCUUUGCAUGUCUCCUUCUUUCCUUUGUGUGUCUUUUCUGUCUGCAGUGUGUCUUACCUAUUCCCAUGUUUCUCCUGCAUGUUCUUUCUUGCAGAGCUUUGAGCUUUGUUUCACUUUCUCUGGUGCCUGUGUGGUCUGCUUUGUCUUCACUAGCUAUGGCUCUCUGU [Xist repeat E proximal]”, the half-maximal binding in series [1] was 100 nM. The binding result in series [2] (less than for repeat A) is on record as “binds more weakly”.

In the case of “GGGAGCUUGCUCCAGCCAUGUUUGCUCGUUUCCCGUGGAUGUGCGGUUCUUCCGUGGUUUCUCUCCAUCUAAGGAGCUUUGGGGGAACAUUUUUAGUUCCCCUACCACCAAGCCUUAUGGCUUAUUUAAGAAAACAUAUCAAAAUUCCACGAGAUUUUUGACGUUUUGAUAUGUUCUGGUAAGAUUUUUUUUUUGACAUGUCCUCCAUACUUUUUGAUAUUUGUAAUAUUUUCAGUCAAUUUUUCAUUUUUAAGGAAUAUUUCUUUGUUGUGCCUUUUGGUUGAUACUUGUGUGUGUAUGGUGGACUUACCUUUCUUUCAUUGUUUAUAUAUUCUUGCCCAUCGGGGCCACGGAUACCUGUGUGUCCUCCCCGCCAUUCCAUGCCCAACGGGGUUUUGGAUACUUACCUGCCUUUUCAUUCUUUUUUUUUCUUAUUAUUUUUUUUUCUAAACUUGCCCAUCUGGGCUGUGGAUACCUGCUUUUAUUCUUUUUUUCUUCUCCUUAG [Xist repeat A]”, the half-maximal binding in series [1] is 100 nM. The binding result in series [2] (more than for repeat E) is on record as “binds more weakly”.
